Experimental data: PubChem BioAssay AID743121 (NCATS, 2013)
Assay: 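Knock-downs that sensitise breast cancer cells to camptothecin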 (primary screen). Cells: MDA-MB-231 cells, a human breast cancer line. Reagent: single siRNA against human genes, 20 nM siRNA (0.8 pmol per well). Time to read-out: 120 h (drug added 48 h after transfection, read 72 h later). Treatment: camptothecin 20 nM (about EC30) for 72 h; vehicle 0.1% DMSO in parallel plates. Measurement: 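Cell viability by ATP luminescence (CellTiter-Glo) as % of non-targeting siRNA wells, and the log2 ratio of viability without drug over viability with camptothecin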. Scale: log2 vehicle/camptothecin viability: higher = stronger sensitisation to camptothecin; viability with camptothecin and viability without drug: higher = more viable cells. Call rule: 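Active genes have an RSA gene-level p-value below 0.001, computed from the ratios of their separate siRNAs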.
This is one part, drawn at random, of about 26,000 reagents. In the full data, 167 (0.63%) were called active. 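Calls are per gene from RSA p-values that are not deposited; an individual active-marked siRNA can sensitise only weakly.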 Entries without a mark were called inactive. Reagents against one gene are numbered here.

The first 4 records, ahead of the listing:
| target gene | reagent | log2 vehicle/camptothecin viability | viability with camptothecin (% of control) | viability without drug (% of control) |
| --- | --- | --- | --- | --- |
| TBCEL (tubulin folding cofactor E like) | 1 | -0.242 | 111 | 93.6 |
| TBCEL (tubulin folding cofactor E like) | 2 | -0.335 | 73.5 | 58.3 |
| TBCEL (tubulin folding cofactor E like) | 3 | -0.0242 | 98.1 | 96.4 |
| TBCEL (tubulin folding cofactor E like) | 4 | -0.243 | 28.8 | 24.3 |

The list itself, from the first entry:
| target gene | reagent | log2 vehicle/camptothecin viability | viability with camptothecin (% of control) | viability without drug (% of control) |
| --- | --- | --- | --- | --- |
| TBCEL (tubulin folding cofactor E like) | 1 | -0.242 | 111 | 93.6 |
| TBCEL (tubulin folding cofactor E like) | 2 | -0.335 | 73.5 | 58.3 |
| TBCEL (tubulin folding cofactor E like) | 3 | -0.0242 | 98.1 | 96.4 |
| TBCEL (tubulin folding cofactor E like) | 4 | -0.243 | 28.8 | 24.3 |
| CD44 (CD44 molecule (IN blood group)) | 1 | -0.00378 | 77.7 | 77.5 |
| CD44 (CD44 molecule (IN blood group)) | 2 | -0.123 | 71.1 | 65.3 |
| CD44 (CD44 molecule (IN blood group)) | 3 | 0.0465 | 97.7 | 101 |
| BHLHE22 (basic helix-loop-helix family member e22) | 1 | -0.351 | 108 | 84.8 |
| BHLHE22 (basic helix-loop-helix family member e22) | 2 | -0.122 | 95.5 | 87.8 |
| BHLHE22 (basic helix-loop-helix family member e22) | 3 | -0.152 | 118 | 106 |
| BHLHE22 (basic helix-loop-helix family member e22) | 4 | -0.394 | 122 | 92.8 |
| SRPX2 (sushi repeat containing protein X-linked 2) | 1 | -0.0376 | 103 | 100 |
| SRPX2 (sushi repeat containing protein X-linked 2) | 2 | 0.243 | 86.3 | 102 |
| SRPX2 (sushi repeat containing protein X-linked 2) | 3 | -0.0112 | 101 | 100 |
| RAI1 (retinoic acid induced 1) | 1 | 0.118 | 62.5 | 67.8 |
| RAI1 (retinoic acid induced 1) | 2 | -0.663 | 18.1 | 11.4 |
| RAI1 (retinoic acid induced 1) | 3 | 0.0812 | 53 | 56.1 |
| ITGA10 (integrin subunit alpha 10) | 1 | 0.105 | 88.3 | 95 |
| ITGA10 (integrin subunit alpha 10) | 2 | -0.297 | 113 | 92 |
| ITGA10 (integrin subunit alpha 10) | 3 | -0.00465 | 105 | 104 |
| ITGA10 (integrin subunit alpha 10) | 4 | -0.0267 | 82.2 | 80.7 |
| RNASEL (ribonuclease L) | 1 | -0.207 | 68.8 | 59.6 |
| RNASEL (ribonuclease L) | 2 | -0.217 | 97 | 83.4 |
| RNASEL (ribonuclease L) | 3 | -0.264 | 58.9 | 49.1 |
| RNASEL (ribonuclease L) | 4 | -0.496 | 96.5 | 68.5 |
| PCDH7 (protocadherin 7) | 1 | 0.126 | 69.6 | 76 |
| PCDH7 (protocadherin 7) | 2 | 0.318 | 81.7 | 102 |
| PCDH7 (protocadherin 7) | 3 | -0.142 | 70.7 | 64 |
| PCDH7 (protocadherin 7) | 4 | -0.444 | 89.9 | 66.1 |
| PAX9 (paired box 9) | 1 | 0.343 | 51 | 64.7 |
| PAX9 (paired box 9) | 2 | -0.289 | 124 | 102 |
| PAX9 (paired box 9) | 3 | -0.0728 | 83.2 | 79.1 |
| H2AX (H2A.X variant histone) | 1 | -0.638 | 79.3 | 51 |
| H2AX (H2A.X variant histone) | 2 | -0.364 | 34.3 | 26.6 |
| H2AX (H2A.X variant histone) | 3 | -0.204 | 106 | 92.2 |
| NMI (N-myc and STAT interactor) | 1 | -0.245 | 64.8 | 54.7 |
| NMI (N-myc and STAT interactor) | 2 | 0.416 | 37.7 | 50.3 |
| NMI (N-myc and STAT interactor) | 3 | 0.0549 | 73.2 | 76 |
| NMI (N-myc and STAT interactor) | 4 | -0.196 | 87.8 | 76.6 |
| RPL13 (ribosomal protein L13) | 1 | -0.138 | 75.3 | 68.4 |
| RPL13 (ribosomal protein L13) | 2 | -0.357 | 100 | 78.4 |
| RPL13 (ribosomal protein L13) | 3 | -0.14 | 98.5 | 89.4 |
| RPL13 (ribosomal protein L13) | 4 | -0.477 | 81.1 | 58.3 |
| PRDM2 (PR/SET domain 2) | 1 | -0.214 | 95.5 | 82.3 |
| PRDM2 (PR/SET domain 2) | 2 | 0.586 | 42.2 | 63.3 |
| PRDM2 (PR/SET domain 2) | 3 | 0.185 | 39.1 | 44.4 |
| PRDM2 (PR/SET domain 2) | 4 | 0.0792 | 71.1 | 75.2 |
| RXFP3 (relaxin family peptide receptor 3) | 1 | 0.641 | 71.3 | 111 |
| RXFP3 (relaxin family peptide receptor 3) | 2 | 0.0767 | 77.2 | 81.5 |
| RXFP3 (relaxin family peptide receptor 3) | 3 | 0.166 | 47.8 | 53.7 |
| RXFP3 (relaxin family peptide receptor 3) | 4 | 0.0373 | 92.4 | 94.8 |
| MAFF (MAF bZIP transcription factor F) | 1 | 1.25 | 7.57 | 18 |
| MAFF (MAF bZIP transcription factor F) | 2 | -0.167 | 86.4 | 76.9 |
| MAFF (MAF bZIP transcription factor F) | 3 | -0.0945 | 101 | 94.6 |
| AMELX (amelogenin X-linked) | 1 | -0.215 | 96.6 | 83.2 |
| AMELX (amelogenin X-linked) | 2 | 0.229 | 88.2 | 103 |
| AMELX (amelogenin X-linked) | 3 | -0.437 | 94.9 | 70.1 |
| AMELX (amelogenin X-linked) | 4 | -0.438 | 75.2 | 55.5 |
| DAOA (D-amino acid oxidase activator) | 1 | -0.238 | 89.2 | 75.6 |
| DAOA (D-amino acid oxidase activator) | 2 | 0.187 | 70.5 | 80.3 |
| DAOA (D-amino acid oxidase activator) | 3 | -0.161 | 23.7 | 21.2 |
| DAOA (D-amino acid oxidase activator) | 4 | 0.279 | 28.4 | 34.5 |
| MTMR1 (myotubularin related protein 1) | 1 | -0.182 | 85.2 | 75.1 |
| MTMR1 (myotubularin related protein 1) | 2 | -0.208 | 61.3 | 53.1 |
| MTMR1 (myotubularin related protein 1) | 3 | -0.179 | 71.2 | 62.9 |
| MTMR1 (myotubularin related protein 1) | 4 | 0.167 | 91.4 | 103 |
| MVP (major vault protein) | 1 | -0.00116 | 93.1 | 93 |
| MVP (major vault protein) | 2 | -0.287 | 81.6 | 66.9 |
| MVP (major vault protein) | 3 | 0.106 | 36.9 | 39.7 |
| PPP1R1B (protein phosphatase 1 regulatory inhibitor subunit 1B) | 1 | -0.0264 | 56 | 55 |
| PPP1R1B (protein phosphatase 1 regulatory inhibitor subunit 1B) | 2 | -0.155 | 85.1 | 76.4 |
| PPP1R1B (protein phosphatase 1 regulatory inhibitor subunit 1B) | 3 | -0.0992 | 77.8 | 72.6 |
| PPP1R1B (protein phosphatase 1 regulatory inhibitor subunit 1B) | 4 | 0.462 | 30 | 41.3 |
| BOC (BOC cell adhesion associated, oncogene regulated) | 1 | 0.31 | 40.7 | 50.5 |
| BOC (BOC cell adhesion associated, oncogene regulated) | 2 | -0.47 | 90 | 64.9 |
| BOC (BOC cell adhesion associated, oncogene regulated) | 3 | 0.278 | 59.9 | 72.7 |
| TRIM22 (tripartite motif containing 22) | 1 | -0.21 | 48.9 | 42.3 |
| TRIM22 (tripartite motif containing 22) | 2 | -0.132 | 115 | 105 |
| TRIM22 (tripartite motif containing 22) | 3 | -0.985 | 65.5 | 33.1 |
| TRIM22 (tripartite motif containing 22) | 4 | -0.102 | 76.6 | 71.4 |
| CPS1 (carbamoyl-phosphate synthase 1) | 1 | -0.514 | 53.3 | 37.3 |
| CPS1 (carbamoyl-phosphate synthase 1) | 2 | -0.0801 | 52.3 | 49.4 |
| CPS1 (carbamoyl-phosphate synthase 1) | 3 | -0.0925 | 119 | 112 |
| CPS1 (carbamoyl-phosphate synthase 1) | 4 | -0.135 | 46.4 | 42.3 |
| LSS (lanosterol synthase) | 1 | -0.323 | 109 | 86.9 |
| LSS (lanosterol synthase) | 2 | -0.0261 | 83 | 81.5 |
| LSS (lanosterol synthase) | 3 | 0.522 | 25.6 | 36.7 |
